Experimental data published in US20240197715A1, “PHARMACEUTICAL COMBINATIONS AND USES THEREOF” (NOVARTIS AG, priority 2022, published 2024).
At least one compound was matched to its structure with a doubt left. Some results were stated once for a whole list of compounds, not compound by compound.

Columns and labels:
Format in all cases: in vivo
[1] = system: SW620 (CCL-227, ATCC) MSS colorectal carcinoma xenografts; assay: SW620 MSS CRC xenograft efficacy in nude mice
Experimental: SW620 (CCL-227, ATCC) [MSS colorectal carcinoma (CRC)] was cultured in DMEM (#1-26F01-I, AMIMED) supplemented with 10% FCS (#2-0-1F30-I, BioConcept), 4 mM L-glutamine (#5-10K50-H, BioConcept) and 1 mM Sodium pyruvate (#5-60F00-H, BioConcept). Cells were passaged by washing first with Dulbecco's PBS without Ca^2+/Mg^2+ (#3-05F29-1, AMIMED), trypsinising cells with Trypsin 0.05% in PBS with EDTA (#5-51F00-H, AMIMED), centrifuging in the respective culture media, and splitting cells into fresh media at a ratio of 1:8, 2 times per week. […]
Tumor volumes (TVol), determined from caliper measurements (using the formula I*w2*π/6) were measured two times per week. Tumor response was quantified by the change in tumor volume (endpoint minus starting value in mm^3) as the T/C (the ratio between the tumor volume in the treated group and in the untreated control group). In the case of a tumor regression or to assess the percentage of change in TVol, the tumor response was quantified by the percentage of regression of the starting TVol. The body-weight (BW) of the animal was measured three times per week allowing calculation at any particular time-point relative to the day of initiation of treatment (day 0) of the percentage change in BW (4% BW). […]

[2] = system: SHP-77 (CRL-2195, ATCC) MSS small cell lung carcinoma xenografts; assay: SHP-77 MSS SCLC xenograft efficacy in nude mice; details: SHP77; TMZ single agent
Experimental: SHP-77 (CRL-2195, ATCC) is a MSS small cell lung carcinoma (SCLC). It was cultured in RPMI 1640 Medium, GlutaMAX™ (#61870036, GIBCO) supplemented with 10% FCS (#2-O-1F30-I, BioConcept). Cells were passaged by washing first with Dulbecco's PBS without Ca^2+/Mg^2+ (#3-05F29-1, AMIMED), trypsinising cells with Trypsin 0.05% in PBS with EDTA (#5-51F00-H, AMIMED), centrifuging in the respective culture media, and splitting cells into fresh media at a ratio of 1:8, 2 times per week.
Athymic nude mice (Charles River, Germany) were allowed to adapt for 7 days upon arrival at the animal facility and housed in a pathogen-controlled environment (5 mice/Type III cage) with access to food and water ad libitum. Animals were identified with transponders. […]
(§1) Tumor volumes (TVol), determined from caliper measurements (using the formula I*w2*TT/6) were measured two times per week. Tumor response was quantified by the change in tumor volume (endpoint minus starting value in mm^3) as the T/C. In the case of a tumor regression or to assess the percentage of change in TVol, the tumor response was quantified by the percentage of regression of the starting TVol. The body-weight (BW) of the animal was measured three times per week allowing calculation at any particular time-point relative to the day of initiation of treatment (day 0) of the percentage change in BW (4% BW).

[3] = system: T84 (CCL-248, ATCC) MSS colorectal carcinoma xenografts; assay: T84 MSS CRC xenograft efficacy in nude mice
Experimental: T84 (CCL-248, ATCC) is MSS colorectal carcinoma (CRC). It was cultured in DMEM (#1-26F01-I, AMIMED) supplemented with 10% FCS (#2-0-1F30-I, BioConcept), 4 mM L-glutamine (#5-10K50-H, BioConcept) and 1 mM Sodium pyruvate (#5-60F00-H, BioConcept). Cells were passaged by washing first with Dulbecco's PBS without Ca^2+/Mg^2+ (#3-05F29-1, AMIMED), trypsinising cells with Trypsin 0.05% in PBS with EDTA (#5-51F00-H, AMIMED), centrifuging in the respective culture media, and splitting cells into fresh media at a ratio of 1:8, 2 times per week.
Athymic nude mice (Charles River, Germany) were allowed to adapt for 7 days upon arrival at the animal facility and housed in a pathogen-controlled environment (5 mice/Type III cage) with access to food and water ad libitum. Animals were identified with transponders. Studies described in this report were performed according to procedures covered by permit number 1975 issued by the Kantonales Veterinäramt Basel-Stadt and strictly adhered to the Eidgenössisches Tierschutzgesetz and the Eidgenössische Tierschutzverordnung.
Subcutaneous tumors were initiated by injecting 5.0×10^6 T84 tumor cells in 50% Matrigel (#354234, Corning) in HBSS (#H6648, SIGMA) in the right flank of nude mice. Efficacy experiment (n=6) started approximatively 7 days post-cell injection.
Compound A and temozolomide were made-up fresh on a weekly basis and kept at 4° C. and protected from light. […]
as §1

Cn1nnc2c(C(N)=O)ncn2c1=O [temozolomide]
response after the 2nd cycle of TMZ treatment [1]: all tumors were not responding anymore
relapse after 1 cycle of temozolomide ([1]; 1 cycle of TMZ): relapsed after 3 weeks
relapse after regression [2]: followed by a slow relapse
relapse after 1 cycle of temozolomide [3]: followed by a quick relapse
response after the 2nd cycle of TMZ treatment [3]: all tumors were not responding anymore
tumor regression after 1 cycle of temozolomide ([3]; TMZ 25 mg/kg p.o. 5 consecutive days within 28 days cycle, Compound A 120 mg/kg): 30-40%
